PubChem BioAssay AID652272 | Drosophila RNAi Screening Center, 2013

- Purpose: 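Genes whose knock-down decreases or increases Hedgehog reporter output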 (primary screen)
- Cells: Drosophila clone 8 (Cl8) cells
- Reagent: long dsRNA against Drosophila genes
- Measurement: 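Plate reader light from a firefly reporter under a ptc promoter fragment that responds to Hedgehog, with Renilla light as transfection reference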
- Reading the numbers: firefly Hh reporter signal: higher = more ptc reporter light; Renilla reference signal: higher = more Renilla control light
- Active means: 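Hit when the z-score averaged over two replicates is under -2 or over +3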
- Meaning of the calls: active = hit: reporter lowered or raised; inactive = not a hit
In all, the deposit lists about 21,000 reagents; below is an unselected part of those that have a named target and a result. Over the whole deposit, 503 (2.4%) got an active call. 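Raw plate light values, not normalised; calls rest on replicate z-scores that were not deposited; hits include reporter decreases as well as increases.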 Unmarked entries are inactive. A plus sign joins genes that one reagent is predicted to hit. The record does not give: the amount of reagent, the time to read-out.

no.	Target gene	amplicon	firefly Hh reporter signal, replicate 1	firefly Hh reporter signal, replicate 2	firefly Hh reporter signal, replicate 3	Renilla reference signal, replicate 1	Renilla reference signal, replicate 2
1	Ice2	DRSC14268	1.32e5	81172		5421	3448
2	Pld	DRSC04854	1.72e5	73392		6381	2642
3	Sam-S	DRSC00758	1.21e5	64920		4999	3072
4	RhoGAP93B	DRSC15488	7.71e5	1.12e5		37042	3170
5	galectin	DRSC00305	97149	68369		2464	1320
6	Nepl10	DRSC07212	99627	68909		2520	5546
7	NijB	DRSC09850	6.96e5	1.18e5		4241	4241
8	CG31128	DRSC13675	51637	3.19e5		14032	7621
9	mv	DRSC08208	82407	47756		2809	3043
10	mv	DRSC08570	89533	38865		2876	3127
11	Ppt1	DRSC17806	82163	2.15e5		2182	7281
12	CG1105	DRSC12528	89274	79152		4016	2743
13	raptor	DRSC18359	44171	1.31e5		1570	4650
14	CG16865	DRSC01904	76250	42720		2054	4145
15	CG31688	DRSC02117	57508	31597		1883	3060
16	CG31688	DRSC02682	65760	38853		2224	4354
17	AdoR	DRSC16556	47216	35296		2507	624
18	CG9391	DRSC11858	90552	91121		3094	2167
19	Phae1	DRSC02554	1.99e5	1.04e5		5349	8704
20	CG3061	DRSC15460	74636	84843		1632	2121
21	AnxB10	DRSC20677	1.61e5	92589		3488	2234
22	CG10561	DRSC02068	63500	73476		2796	3495
23	lncRNA:CR43270	DRSC11575	2.26e5			5248	
24	witty	DRSC02378	1.94e5	1.29e5		4771	9196
25	CG13102	DRSC02202	71506	55066		2341	4492
26	twr	DRSC12491	65109	74861		2456	2745
27	CG32246	DRSC08115	89753	1.31e5		1731	5680
28	CG12659	DRSC17862	1.07e5	3.45e5		2672	9879
29	CG18223	DRSC10306	84214	1.55e5		2384	4048
30	CG42748	DRSC03712	56608	45379		1446	4471
31	CG42748	DRSC03713	1.16e5	76065		4816	3494
32	CG42748	DRSC03734	56795	57792		1804	4128
33	CG42834	DRSC13234	2554	1.96e5		595	4411
34	CG10752	DRSC09799	89580	61152		4118	1114
35	CG14106	DRSC10109	38000	41337	65873	4066	4709
36	ETHR	DRSC15915	4.40e5	1.78e5		21147	3680
37	CG14050	DRSC18594	76816	2.44e5		2758	8640
38	insb	DRSC06995	66344	56280		1529	3696
39	Gr94a	DRSC13597	43475	1.71e5		8861	3638
40	CG43740	DRSC17848	75720	87894		2656	3335
41	CG43740	DRSC17994	1.57e5	3.86e5		5458	14105
42	CG13127	DRSC02223	1.27e5	36274		3148	5168
43	Alg1	DRSC15297	1.45e5	72868		5701	3019
44	CG6761	DRSC10705	90421	77196		3920	3300
45	Nmd3	DRSC18687	1.53e5	1.01e5		3536	3515
46	Obp83ef	DRSC12268	88768	1.00e5		3282	3226
47	Hexo1	DRSC08663	1.06e5	45104		3840	355
48	CG42380 + CG42379 + PIG-M + 1 more	DRSC03884	1.05e5	2.33e5		1907	10224
49	CG42380 + CG42379 + PIG-M + 1 more	DRSC04580	88583	44309		3317	1786
50	Hmu	DRSC16705	80212	1.06e5		2656	3611
51	Mgat1	DRSC07463	79702	35315		2448	2787
52	Adat1	DRSC03479	1.03e5	46387		2711	3979
53	Shark	DRSC07680	1.70e5	1.09e5		6473	4357
54	c12.1	DRSC18750	57098	1.37e5		977	7024
55	Nup154	DRSC03384	51217	47698		2632	2525
56	CG13506	DRSC04150	1.05e5	80992		2211	6480
57	asRNA:CR30267 + CG42260	DRSC03953	1.34e5	1.94e5		3672	9465
